In the supplement of paper PMC5355238:
Structures can show the parent of a compound that is named as a salt. This is one part of the list. Most values lie at the level of the controls, where differences are scatter.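 Reh is a human leukemia cell line; the read-out is the median γH2AX antibody signal in S-phase cells by flow cytometry, with the score counting standard deviations from the median difference of each paired set of plates. Scores above 2.5 were called candidate hits, while scores below -2 mark compounds that lowered the MK1775-induced damage.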

System: Reh
Experiment: Z' of S-phase gammaH2AX difference (drug + MK1775 minus drug alone) (Z-score); higher = stronger synergistic S-phase DNA damage with MK1775
Conditions: MK1775 concentration 400 nM; first compound 10 µM; 4 h

| SMILES | Z' of S-phase gammaH2AX difference (Z-score) |
| --- | --- |
| C[C@]12CC[C@@H](O)C[C@@H]1CC[C@@H]1[C@@H]2CC[C@]2(C)[C@@H](O)CC[C@@H]12 [5alpha-Androstane-3alpha,17beta-diol] + C=CCn1c(=O)c2cnc(Nc3ccc(N4CCN(C)CC4)cc3)nc2n1-c1cccc(C(C)(C)O)n1 [MK1775] | inactive: -0.287 |
| CC(Cc1ccc(OCC(=O)O)cc1)NCC(O)c1cccc(Cl)c1 (stereo unspecified) + C=CCn1c(=O)c2cnc(Nc3ccc(N4CCN(C)CC4)cc3)nc2n1-c1cccc(C(C)(C)O)n1 [MK1775] | inactive: -0.0401 |
| OC1CCCCC1N1CCC(c2ccccc2)CC1 (stereo unspecified) [(?)-Vesamicol hydrochloride] + C=CCn1c(=O)c2cnc(Nc3ccc(N4CCN(C)CC4)cc3)nc2n1-c1cccc(C(C)(C)O)n1 [MK1775] | inactive: 0.874 |
| N[C@@H](Cc1ccc(N(CCCl)CCCl)cc1)C(=O)O [Melphalan] + C=CCn1c(=O)c2cnc(Nc3ccc(N4CCN(C)CC4)cc3)nc2n1-c1cccc(C(C)(C)O)n1 [MK1775] | inactive: -0.563 |
| O=[N+]([O-])c1cc(O)c(O)c([N+](=O)[O-])c1 [3,5-Dinitrocatechol] + C=CCn1c(=O)c2cnc(Nc3ccc(N4CCN(C)CC4)cc3)nc2n1-c1cccc(C(C)(C)O)n1 [MK1775] | inactive: -0.517 |
| CN[C@@H]1C[C@@H](c2ccc(Cl)c(Cl)c2)c2ccccc21 [Indatraline hydrochloride] + C=CCn1c(=O)c2cnc(Nc3ccc(N4CCN(C)CC4)cc3)nc2n1-c1cccc(C(C)(C)O)n1 [MK1775] | inactive: -0.00243 |
| CN1[C@@H]2CC[C@H]1C[C@@H](OC(=O)[C@H](CO)c1ccccc1)C2 [L-Hyoscyamine] + C=CCn1c(=O)c2cnc(Nc3ccc(N4CCN(C)CC4)cc3)nc2n1-c1cccc(C(C)(C)O)n1 [MK1775] | inactive: 0.144 |
| CN(C)CCN(C)CCc1ccc(Cl)c(Cl)c1 + C=CCn1c(=O)c2cnc(Nc3ccc(N4CCN(C)CC4)cc3)nc2n1-c1cccc(C(C)(C)O)n1 [MK1775] | inactive: -0.112 |
| C[C@H](N)CN1CCc2ccc(Br)cc21 [VER-3323 hemifumarate salt] + C=CCn1c(=O)c2cnc(Nc3ccc(N4CCN(C)CC4)cc3)nc2n1-c1cccc(C(C)(C)O)n1 [MK1775] | inactive: -0.00485 |
| C=C(C)[C@H]1CN[C@H](C(=O)O)[C@H]1CC(=O)O [Kainic acid] + C=CCn1c(=O)c2cnc(Nc3ccc(N4CCN(C)CC4)cc3)nc2n1-c1cccc(C(C)(C)O)n1 [MK1775] | inactive: 1.31 |
| N[C@@H](Cn1ccc(=O)[nH]c1=O)C(=O)O [S(-)-Willardiine] + C=CCn1c(=O)c2cnc(Nc3ccc(N4CCN(C)CC4)cc3)nc2n1-c1cccc(C(C)(C)O)n1 [MK1775] | inactive: 0.755 |
| CC12CCC3C(CCC4=C(O)C(=O)CCC43C)C1CCC2=O (stereo unspecified) [4-Androsten-4-ol-3,17-dione] + C=CCn1c(=O)c2cnc(Nc3ccc(N4CCN(C)CC4)cc3)nc2n1-c1cccc(C(C)(C)O)n1 [MK1775] | inactive: -0.454 |
| O=[N+]([O-])c1ccc2nc(N3CCNCC3)ccc2c1 [Quipazine, 6-nitro-, maleate] + C=CCn1c(=O)c2cnc(Nc3ccc(N4CCN(C)CC4)cc3)nc2n1-c1cccc(C(C)(C)O)n1 [MK1775] | inactive: -0.325 |
| c1ccc2c(N3CCNCC3)cccc2c1 [1-(1-Naphthyl)piperazine hydrochloride] + C=CCn1c(=O)c2cnc(Nc3ccc(N4CCN(C)CC4)cc3)nc2n1-c1cccc(C(C)(C)O)n1 [MK1775] | inactive: 0.255 |
| CCCN(CCC)CCc1c[nH]c2ccc(C(N)=O)cc12 [N,N-Dipropyl-5-carboxamidotryptamine maleate] + C=CCn1c(=O)c2cnc(Nc3ccc(N4CCN(C)CC4)cc3)nc2n1-c1cccc(C(C)(C)O)n1 [MK1775] | inactive: -0.0899 |
| CC(C)NC(C)Cc1ccc(I)cc1 (stereo unspecified) [Iofetamine hydrochloride] + C=CCn1c(=O)c2cnc(Nc3ccc(N4CCN(C)CC4)cc3)nc2n1-c1cccc(C(C)(C)O)n1 [MK1775] | inactive: 0.605 |
| NCC#Cc1ccccc1 [3-Phenylpropargylamine hydrochloride] + C=CCn1c(=O)c2cnc(Nc3ccc(N4CCN(C)CC4)cc3)nc2n1-c1cccc(C(C)(C)O)n1 [MK1775] | inactive: 0.568 |
| NCC(O)c1ccc(O)cc1 (stereo unspecified) [(?)-Octopamine hydrochloride] + C=CCn1c(=O)c2cnc(Nc3ccc(N4CCN(C)CC4)cc3)nc2n1-c1cccc(C(C)(C)O)n1 [MK1775] | inactive: -0.267 |

A few values from the list.
Under Z' of S-phase gammaH2AX difference (Z-score), C=C(C)[C@H]1CN[C@H](C(=O)O)[C@H]1CC(=O)O [Kainic acid] + C=CCn1c(=O)c2cnc(Nc3ccc(N4CCN(C)CC4)cc3)nc2n1-c1cccc(C(C)(C)O)n1 [MK1775] reads inactive: 1.31
Under Z' of S-phase gammaH2AX difference (Z-score), CC12CCC3C(CCC4=C(O)C(=O)CCC43C)C1CCC2=O (stereo unspecified) [4-Androsten-4-ol-3,17-dione] + C=CCn1c(=O)c2cnc(Nc3ccc(N4CCN(C)CC4)cc3)nc2n1-c1cccc(C(C)(C)O)n1 [MK1775] reads inactive: -0.454

Going on with the list:

| SMILES | Z' of S-phase gammaH2AX difference (Z-score) |
| --- | --- |
| COC(=O)N1CCN(C(=O)Cc2ccc(Cl)c(Cl)c2)C(CN2CCCC2)C1 (stereo unspecified) + C=CCn1c(=O)c2cnc(Nc3ccc(N4CCN(C)CC4)cc3)nc2n1-c1cccc(C(C)(C)O)n1 [MK1775] | inactive: 1.05 |
| N=C(NCCC[C@H](N)C(=O)O)N[N+](=O)[O-] [NG-Nitro-L-arginine] + C=CCn1c(=O)c2cnc(Nc3ccc(N4CCN(C)CC4)cc3)nc2n1-c1cccc(C(C)(C)O)n1 [MK1775] | inactive: 0.296 |
| CCCN(CCC)C1Cc2cc(OC)c(OC)cc2C1 + C=CCn1c(=O)c2cnc(Nc3ccc(N4CCN(C)CC4)cc3)nc2n1-c1cccc(C(C)(C)O)n1 [MK1775] | inactive: 0.028 |
| O=c1c2ccccc2[se]n1-c1ccccc1 [Ebselen] + C=CCn1c(=O)c2cnc(Nc3ccc(N4CCN(C)CC4)cc3)nc2n1-c1cccc(C(C)(C)O)n1 [MK1775] | inactive: -0.0753 |
| CN1CCC23CCCCC2C1Cc1ccc(O)cc13 [Dextrorphan D-tartrate] + C=CCn1c(=O)c2cnc(Nc3ccc(N4CCN(C)CC4)cc3)nc2n1-c1cccc(C(C)(C)O)n1 [MK1775] | inactive: -1.08 |
| CC(=O)O[C@H]1C[C@@H]2CC[C@@H]3[C@H](CC[C@@]4(C)[C@H]3C[C@H]([N+]3(C)CCCCC3)[C@@H]4OC(C)=O)[C@@]2(C)C[C@@H]1[N+]1(C)CCCCC1 [Pancuronium bromide] + C=CCn1c(=O)c2cnc(Nc3ccc(N4CCN(C)CC4)cc3)nc2n1-c1cccc(C(C)(C)O)n1 [MK1775] | inactive: 1.94 |
| S=C=Nc1cccc(C2(N3CCCCC3)CCCCC2)c1 [Metaphit methanesulfonate] + C=CCn1c(=O)c2cnc(Nc3ccc(N4CCN(C)CC4)cc3)nc2n1-c1cccc(C(C)(C)O)n1 [MK1775] | inactive: -0.311 |
| NC(CCCCCP(=O)(O)O)C(=O)O (stereo unspecified) [(?)-2-Amino-7-phosphonoheptanoic acid] + C=CCn1c(=O)c2cnc(Nc3ccc(N4CCN(C)CC4)cc3)nc2n1-c1cccc(C(C)(C)O)n1 [MK1775] | inactive: -0.244 |
| CN1CCc2cccc(Cl)c2CC1 + C=CCn1c(=O)c2cnc(Nc3ccc(N4CCN(C)CC4)cc3)nc2n1-c1cccc(C(C)(C)O)n1 [MK1775] | inactive: 0.453 |
| COC(=O)[C@@H](N)CCCNC(=N)N[N+](=O)[O-] [NG-Nitro-L-arginine methyl ester hydrochloride] + C=CCn1c(=O)c2cnc(Nc3ccc(N4CCN(C)CC4)cc3)nc2n1-c1cccc(C(C)(C)O)n1 [MK1775] | inactive: 0.131 |
| C=CCN1CC[C@]23c4c5ccc(O)c4O[C@H]2C(=O)CC[C@@]3(O)[C@H]1C5 [Naloxone hydrochloride] + C=CCn1c(=O)c2cnc(Nc3ccc(N4CCN(C)CC4)cc3)nc2n1-c1cccc(C(C)(C)O)n1 [MK1775] | inactive: -0.466 |
| CP(=O)(O)C1=CCNCC1 + C=CCn1c(=O)c2cnc(Nc3ccc(N4CCN(C)CC4)cc3)nc2n1-c1cccc(C(C)(C)O)n1 [MK1775] | inactive: -0.382 |
| NC(=O)c1cc(N2CC2)c([N+](=O)[O-])cc1[N+](=O)[O-] + C=CCn1c(=O)c2cnc(Nc3ccc(N4CCN(C)CC4)cc3)nc2n1-c1cccc(C(C)(C)O)n1 [MK1775] | inactive: 0.388 |
| Cn1cc(C2=C(c3cn(C4CCN(Cc5ccccn5)CC4)c4ccccc34)C(=O)NC2=O)c2ccccc21 + C=CCn1c(=O)c2cnc(Nc3ccc(N4CCN(C)CC4)cc3)nc2n1-c1cccc(C(C)(C)O)n1 [MK1775] | inactive: -0.0111 |
| CN1CC[C@]2(CCN3CCc4c(oc5ccccc45)[C@@H]3C2)N(C)C1=O + C=CCn1c(=O)c2cnc(Nc3ccc(N4CCN(C)CC4)cc3)nc2n1-c1cccc(C(C)(C)O)n1 [MK1775] | inactive: 0.592 |
| N#CC(C#N)=Cc1ccc(O)c(O)c1 [Tyrphostin 23] + C=CCn1c(=O)c2cnc(Nc3ccc(N4CCN(C)CC4)cc3)nc2n1-c1cccc(C(C)(C)O)n1 [MK1775] | inactive: 0.636 |
| NC(=O)CI [Iodoacetamide] + C=CCn1c(=O)c2cnc(Nc3ccc(N4CCN(C)CC4)cc3)nc2n1-c1cccc(C(C)(C)O)n1 [MK1775] | inactive: 0.799 |
| CC[C@@H](C(=O)[C@@H](C)[C@@H](O)[C@H](C)[C@@H]1O[C@@H]([C@@H](CC)C(=O)O)CC[C@@H]1C)[C@H]1O[C@]2(C=C[C@@H](O)[C@]3(CC[C@@](C)([C@H]4CC[C@](O)(CC)[C@H](C)O4)O3)O2)[C@H](C)C[C@@H]1C [Salinomycin (Procoxacin)] + C=CCn1c(=O)c2cnc(Nc3ccc(N4CCN(C)CC4)cc3)nc2n1-c1cccc(C(C)(C)O)n1 [MK1775] | inactive: 0.233 |
